Results taken from the supplement of paper PMC4604168 (melanoma cell lines).
Some of the results follow. Many values rest on one well or one pass, so single values are uncertain.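 Cells were imaged in 1,536-well plates, and nuclei stained with an antibody against cleaved PARP were counted against all DNA-stained nuclei to give the apoptosis fraction. Screening doses were chosen to leave most cells alive, and resting and induced cleaved-PARP levels differ strongly between cell lines.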

How the values were obtained:
Experiment in all cases: cleaved PARP positive nuclei fraction relative to DMSO control; melanoma cells; higher = more apoptosis
Details in all cases: library dose: low library concentration; 72 h
[1] = test system: 501Mel
[2] = test system: A101D
[3] = test system: A2058
[4] = test system: A375
[5] = test system: C32
[6] = test system: CBRC008 (line from a melanoma biopsy)
[7] = test system: CBRC013 (line from a melanoma biopsy)
[8] = test system: CBRC014 (line from a melanoma biopsy)
[9] = test system: CBRC016 (line from a melanoma biopsy)
[10] = test system: CBRC017 (line from a melanoma biopsy)

Compound | cleaved PARP positive nuclei fraction [1] [%] | cleaved PARP positive nuclei fraction [2] [%] | cleaved PARP positive nuclei fraction [3] [%] | cleaved PARP positive nuclei fraction [4] [%] | cleaved PARP positive nuclei fraction [5] [%] | cleaved PARP positive nuclei fraction [6] [%] | cleaved PARP positive nuclei fraction [7] [%] | cleaved PARP positive nuclei fraction [8] [%] | cleaved PARP positive nuclei fraction [9] [%] | cleaved PARP positive nuclei fraction [10] [%]
CS(=O)(=O)c1ccc(C(=O)Nc2ccc(Cl)c(-c3ccccn3)c2)c(Cl)c1 [vismodegib] + O=C(O)c1ccc(-c2c[nH]c3ncc(-c4ccccc4)cc23)cc1C1CCCC1 [GSK650394] (first compound 1 µM, partner dose 0.16 µM) | 105 | 145 | 139 | 193 | 66.1 | 264 | 96.4 | 121 | 212 | 221
CCN(CC)CCNC(=O)c1c(C)[nH]c(/C=C2\C(=O)Nc3ccc(F)cc32)c1C [sunitinib] + Cn1cncc1[C@@](N)(c1ccc(Cl)cc1)c1ccc2c(c1)c(-c1cccc(Cl)c1)cc(=O)n2C [tipifarnib] (first compound 0.4 µM, partner dose 0.01 µM) | 106 | 190 | 57.2 | 673 | 108 | 236 | 231 | 87.5 | 129 | 122
CC(=O)O[C@@]12CO[C@@H]1C[C@H](O)[C@@]1(C)C(=O)[C@H](O)C3=C(C)[C@@H](OC(=O)[C@H](O)[C@@H](NC(=O)OC(C)(C)C)c4ccccc4)C[C@@](O)([C@@H](OC(=O)c4ccccc4)[C@H]21)C3(C)C [Docetaxel] + C[C@@H]1CCN(C(=O)CC#N)C[C@@H]1N(C)c1ncnc2[nH]ccc12 [CP690550] (first compound 0.0001 µM, partner dose 1 µM) | 221 | 111 | 6680 | 4540 | 452 | 182 | 54.5 | 164 | 313 | 190
C[C@@H](N)c1ccc(C(=O)Nc2ccnc3[nH]ccc23)cc1 + O=C(O)[C@@H]1[O][Sb](=[O])([O][Sb]2(=[O])[O][C@H]([C@H](O)CO)[C@H](O)[C@H](C(=O)O)[O]2)[O][C@H]([C@H](O)CO)[C@@H]1O [stibogluconate] (first compound 0.4 µM, partner dose 2 µM) | 51.2 | 117 | 105 | 60.3 | 101 | 52 | – | 134 | 90 | 83.5
NC(=O)c1ccc(N(C(N)=O)c2c(F)cccc2F)nc1-c1ccc(F)cc1F + Cc1cc(N2CCOCC2)cc2[nH]c(-c3c(NC[C@@H](O)c4cccc(Cl)c4)cc[nH]c3=O)nc12 [BMS536924] (first compound 0.4 µM, partner dose 0.2 µM) | 93.2 | 88.8 | 110 | 233 | 66 | 226 | 270 | 95.9 | 104 | 106
NC(=O)c1ccc(N(C(N)=O)c2c(F)cccc2F)nc1-c1ccc(F)cc1F + O=C(Nc1cccc(Cl)c1)Nc1ncc(CCNc2ncnc3ccsc23)s1 [SNS314] (first compound 0.4 µM, partner dose 0.0008 µM) | 109 | 247 | 51 | 105 | 125 | 52.1 | 145 | 78.8 | 136 | 102
CC1(C)CCC(c2ccc(Cl)cc2)=C(CN2CCN(c3ccc(C(=O)NS(=O)(=O)c4ccc(N[C@H](CCN5CCOCC5)CSc5ccccc5)c(S(=O)(=O)C(F)(F)F)c4)cc3)CC2)C1 + O=C(CCCCCCC(=O)Nc1ccccc1)NO [vorinostat] (first compound 0.4 µM, partner dose 0.08 µM) | 165 | 324 | 66.7 | 95.1 | 341 | 180 | 588 | 553 | 197 | 314
Cn1sc(=O)n(Cc2ccccc2)c1=O + Cc1ccc(NC(=O)c2cccc(N(C)C)c2)cc1NC(=O)c1ccc(O)cc1 [ZM336372] (first compound 0.4 µM, partner dose 2 µM) | 416 | 87.8 | 111 | 112 | 99.6 | 76.9 | 62.8 | 130 | 109 | 92.8
CC(=O)O[C@@]12CO[C@@H]1C[C@H](O)[C@@]1(C)C(=O)[C@H](O)C3=C(C)[C@@H](OC(=O)[C@H](O)[C@@H](NC(=O)OC(C)(C)C)c4ccccc4)C[C@@](O)([C@@H](OC(=O)c4ccccc4)[C@H]21)C3(C)C [Docetaxel] + Cn1cncc1[C@@](N)(c1ccc(Cl)cc1)c1ccc2c(c1)c(-c1cccc(Cl)c1)cc(=O)n2C [tipifarnib] (first compound 0.0001 µM, partner dose 0.01 µM) | 346 | 226 | 9650 | 12900 | 444 | 680 | 54.6 | 123 | 481 | 116
Cn1cnc2c(F)c(Nc3ccc(Br)cc3Cl)c(C(=O)NOCCO)cc21 [selumetinib] + NCC(=O)Nc1ccc(-n2nc(C(F)(F)F)cc2-c2ccc3c(ccc4ccccc43)c2)cc1 [OSU03012] (first compound 0.015 µM, partner dose 1 µM) | 342 | 35.4 | 38.7 | 3950 | 70.7 | 141 | 93.8 | 62.2 | 56.5 | 87.2
CC1(C)CCC(c2ccc(Cl)cc2)=C(CN2CCN(c3ccc(C(=O)NS(=O)(=O)c4ccc(N[C@H](CCN5CCOCC5)CSc5ccccc5)c(S(=O)(=O)C(F)(F)F)c4)cc3)CC2)C1 + Cn1cncc1[C@@](N)(c1ccc(Cl)cc1)c1ccc2c(c1)c(-c1cccc(Cl)c1)cc(=O)n2C [tipifarnib] (first compound 0.4 µM, partner dose 0.01 µM) | 95 | 184 | 136 | 2410 | 653 | 1140 | 495 | 387 | 909 | 342
NC(=O)c1ccc(N(C(N)=O)c2c(F)cccc2F)nc1-c1ccc(F)cc1F + Cn1nnc2c(C(N)=O)ncn2c1=O [temozolomide] (first compound 0.4 µM, partner dose 2 µM) | 77.7 | 50.1 | 166 | 137 | 77.5 | 42.2 | – | 89.7 | 351 | 91.9
Cn1sc(=O)n(Cc2ccccc2)c1=O + Cn1nnc2c(C(N)=O)ncn2c1=O [temozolomide] (first compound 0.4 µM, partner dose 2 µM) | 60.3 | 267 | 92.3 | 126 | 72.1 | 49.4 | – | 103 | 114 | 80.3
NC(=O)c1ccc(N(C(N)=O)c2c(F)cccc2F)nc1-c1ccc(F)cc1F + CN(c1ncccc1CNc1nc(Nc2ccc3c(c2)CC(=O)N3)ncc1C(F)(F)F)S(C)(=O)=O [PF562271] (first compound 0.4 µM, partner dose 0.08 µM) | 173 | 140 | 150 | 164 | 82.2 | 41.9 | – | 127 | 83.8 | 139
CC1(C)CCC(c2ccc(Cl)cc2)=C(CN2CCN(c3ccc(C(=O)NS(=O)(=O)c4ccc(N[C@H](CCN5CCOCC5)CSc5ccccc5)c(S(=O)(=O)C(F)(F)F)c4)cc3)CC2)C1 + CN(c1ncccc1CNc1nc(Nc2ccc3c(c2)CC(=O)N3)ncc1C(F)(F)F)S(C)(=O)=O [PF562271] (first compound 0.4 µM, partner dose 0.08 µM) | 76.7 | 173 | 93.2 | 594 | 1080 | 340 | – | 716 | 299 | 305
CCN(CC)CCNC(=O)c1c(C)[nH]c(/C=C2\C(=O)Nc3ccc(F)cc32)c1C [sunitinib] + Cn1c(Nc2ccc(C(F)(F)F)cc2)nc2cc(Oc3ccnc(-c4ncc(C(F)(F)F)[nH]4)c3)ccc21 [CHIR265] (first compound 0.4 µM, partner dose 0.08 µM) | 172 | 318 | 255 | 338 | 1230 | 164 | – | 189 | 66.9 | 89.3
CCN(CC)CCNC(=O)c1c(C)[nH]c(/C=C2\C(=O)Nc3ccc(F)cc32)c1C [sunitinib] + O=C(O)[C@@H]1[O][Sb](=[O])([O][Sb]2(=[O])[O][C@H]([C@H](O)CO)[C@H](O)[C@H](C(=O)O)[O]2)[O][C@H]([C@H](O)CO)[C@@H]1O [stibogluconate] (first compound 0.4 µM, partner dose 2 µM) | 97 | 84.4 | 75.5 | 125 | 198 | 81.5 | – | 172 | 128 | 118
C[C@]1(O)C[C@@H](c2nc(-c3ccc4ccc(-c5ccccc5)nc4c3)c3c(N)nccn32)C1 + Cc1nc(Nc2ncc(C(=O)Nc3c(C)cccc3Cl)s2)cc(N2CCN(CCO)CC2)n1 [dasatanib] (first compound 0.4 µM, partner dose 0.004 µM) | 176 | 205 | 180 | 565 | 105 | 98.7 | – | 119 | 106 | 184

Whole records from above. Values in the order: cleaved PARP positive nuclei fraction [1] [%]	cleaved PARP positive nuclei fraction [2] [%]	cleaved PARP positive nuclei fraction [3] [%]	cleaved PARP positive nuclei fraction [4] [%]	cleaved PARP positive nuclei fraction [5] [%]	cleaved PARP positive nuclei fraction [6] [%]	cleaved PARP positive nuclei fraction [7] [%]	cleaved PARP positive nuclei fraction [8] [%]	cleaved PARP positive nuclei fraction [9] [%]	cleaved PARP positive nuclei fraction [10] [%]
CS(=O)(=O)c1ccc(C(=O)Nc2ccc(Cl)c(-c3ccccn3)c2)c(Cl)c1 [vismodegib] + O=C(O)c1ccc(-c2c[nH]c3ncc(-c4ccccc4)cc23)cc1C1CCCC1 [GSK650394] (first compound 1 µM, partner dose 0.16 µM) in the list: 105	145	139	193	66.1	264	96.4	121	212	221
NC(=O)c1ccc(N(C(N)=O)c2c(F)cccc2F)nc1-c1ccc(F)cc1F + CN(c1ncccc1CNc1nc(Nc2ccc3c(c2)CC(=O)N3)ncc1C(F)(F)F)S(C)(=O)=O [PF562271] (first compound 0.4 µM, partner dose 0.08 µM) in the list: 173	140	150	164	82.2	41.9	–	127	83.8	139
